Measured values as given in the supplement of paper PMC11348887.
Some of the results follow. Most entries show no effect beyond the scatter of the controls.

These molecules were tested on hPSC-derived cortical neurons (WA09) (assay: KCl-induced FOS+/EGR-1+ double-positive nuclei fraction z-score (KCl minus unstimulated); higher = stronger activity-induced IEG response). Conditions: 5 µM; treatment: days 7-14 after plating, readout day 21.

Row | Structure (SMILES) | KCl-induced FOS+/EGR-1+ double-positive nuclei fraction z-score
1 | CC[C@H]1OC(=O)[C@H](C)[C@@H](O[C@H]2C[C@@](C)(OC)[C@@H](O)[C@H](C)O2)[C@H](C)[C@@H](O[C@@H]2O[C@H](C)C[C@H](N(C)C)[C@H]2O)[C@](C)(OC)C[C@@H](C)C(=O)[C@H](C)[C@@H](O)[C@]1(C)O [Clarithromycin] | 2.66
2 | CCCCCCCCCCCCCCCCO [1-Hexadecanol] | -0.34
3 | NC[C@@](O)(c1ccc(Cl)cc1)c1ccc(-c2cn[nH]c2)cc1 | -1.14
